Measured values from patent publication US20160216269A1 (BIOCARE MEDICAL, published 2016).
Results are given in words; binding and its absence hold for the method and conditions named. Some results given as binding are weak or reduced against the parent protein; the word gives no strength.

Chains of the proteins cited; added tags and fusions are not shown. Residues count along the entry.
UniProt P56693, residues 147-253: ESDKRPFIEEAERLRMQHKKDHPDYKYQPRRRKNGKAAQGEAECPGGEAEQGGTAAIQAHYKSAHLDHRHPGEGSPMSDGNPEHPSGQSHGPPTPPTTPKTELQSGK

Target: human SOX10 protein (human) (UniProt P56693)
Test: ELISA on recombinant SOX10, Western blot, IHC on human tissues

B1: mouse monoclonal anti-SOX10 antibody BC34 (antibody, V domains shown)
VH: QVTLKESGPGILQPSQTLSLTCSFSGFSLSTFLIGVGWIRQPSGKGLEWLAHIWWNDNKYYNTALKNRLTISKDTSNNQVFLKIASVDTTDTATYYCVRMAGIGGTDAMDYWGQGTSVTVSS
VL: DIVLTQSPASLAVSLGQRATISCRASEIVEYYGTNLLQWYQQKPGQPPKLLIYAASNVESGVPARFSGSGSGTDFSLNIHPVEEDDIAIYFCQQSRKVPWTFGGGTKLEIK
notes: also called anti-SOX10 antibody [clone BC34]; SOX10 [BC34]
Q: How did the binding turn out when B1 was run?
A: Its binding is “binds”.
